No constants are given. Whether binding was seen depends on the method and setting. Binding seen in cells or lysates may run through a third protein. Binding can be weak; no strength is given. Where a sequence is shown, tags or fusion partners need not be part of it.

Experiment [1] addresses T1, Bazooka endogenously tagged with GFP (Baz::GFP) (Drosophila (endogenous in embryos and wing imaginal discs)) (UniProt O96782).
T1 sequence: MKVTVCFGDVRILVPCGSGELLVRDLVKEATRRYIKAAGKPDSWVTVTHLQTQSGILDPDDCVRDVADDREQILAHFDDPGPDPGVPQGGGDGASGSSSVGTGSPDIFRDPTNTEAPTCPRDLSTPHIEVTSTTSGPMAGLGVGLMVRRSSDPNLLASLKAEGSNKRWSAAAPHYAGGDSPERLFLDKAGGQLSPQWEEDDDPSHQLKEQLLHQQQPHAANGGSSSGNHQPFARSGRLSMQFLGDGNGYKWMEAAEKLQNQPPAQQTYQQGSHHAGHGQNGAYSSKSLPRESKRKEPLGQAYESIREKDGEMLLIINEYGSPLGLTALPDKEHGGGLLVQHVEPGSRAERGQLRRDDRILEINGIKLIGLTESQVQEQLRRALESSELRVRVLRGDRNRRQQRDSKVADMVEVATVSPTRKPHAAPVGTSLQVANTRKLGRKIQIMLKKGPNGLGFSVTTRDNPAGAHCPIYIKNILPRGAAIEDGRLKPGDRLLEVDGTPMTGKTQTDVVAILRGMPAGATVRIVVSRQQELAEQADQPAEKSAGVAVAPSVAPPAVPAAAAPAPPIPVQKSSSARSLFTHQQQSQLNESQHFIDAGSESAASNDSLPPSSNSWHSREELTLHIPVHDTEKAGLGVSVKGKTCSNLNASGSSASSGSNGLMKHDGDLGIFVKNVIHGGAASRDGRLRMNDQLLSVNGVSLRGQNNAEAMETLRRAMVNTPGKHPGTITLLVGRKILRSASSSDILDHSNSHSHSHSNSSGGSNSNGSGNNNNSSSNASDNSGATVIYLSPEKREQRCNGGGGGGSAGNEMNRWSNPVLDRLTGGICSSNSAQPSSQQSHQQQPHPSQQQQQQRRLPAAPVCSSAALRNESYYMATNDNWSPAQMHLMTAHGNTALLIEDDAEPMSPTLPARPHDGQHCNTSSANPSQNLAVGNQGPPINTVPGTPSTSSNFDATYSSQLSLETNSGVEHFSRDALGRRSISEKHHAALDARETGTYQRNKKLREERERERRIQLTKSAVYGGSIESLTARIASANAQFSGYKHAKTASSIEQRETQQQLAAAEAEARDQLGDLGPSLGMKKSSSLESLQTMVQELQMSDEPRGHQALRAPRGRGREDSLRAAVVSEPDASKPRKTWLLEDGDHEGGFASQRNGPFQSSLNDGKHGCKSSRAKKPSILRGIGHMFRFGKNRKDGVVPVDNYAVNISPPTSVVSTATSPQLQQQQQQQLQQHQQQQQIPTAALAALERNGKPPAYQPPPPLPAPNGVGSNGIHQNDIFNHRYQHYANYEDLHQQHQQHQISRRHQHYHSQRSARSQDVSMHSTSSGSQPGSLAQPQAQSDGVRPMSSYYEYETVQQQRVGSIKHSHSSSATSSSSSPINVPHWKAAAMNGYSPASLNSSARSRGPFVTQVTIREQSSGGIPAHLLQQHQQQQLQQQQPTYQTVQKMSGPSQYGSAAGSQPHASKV
Kind of experiment: co-IP; Baz::GFP embryo extract precipitated with a Baz antibody; Western blot. (In general: A western blot detects proteins with antibodies after separation by electrophoresis.)

The target in experiment [2] is Magi (Drosophila melanogaster (endogenous in embryos and wing imaginal discs)). Kind of experiment: co-IP; Baz::GFP embryo lysate (1% Triton X-100, 150 mM NaCl), precipitated with the Magi polyclonal antibody and protein-A microbeads, washed in 150 mM NaCl, 1% NP-40; Western blot.
The target is the same in experiment [3]. The experiment in a line: proximity ligation; Duolink PLA on fixed third instar wing imaginal discs; anti-GFP with anti-Magi or anti-aPKC antibodies; controls with one antibody only.
In experiment [4] the target is Magi overexpressed with apterous-GAL4 (Magi::Cherry) (Drosophila). Described as above.

As to Magi, in experiment [1], the binding result was “binds”.

B1: aPKC (enzyme, UniProt A1Z9X0 1-606)
chain: MQKMPSQILNDGSSVSLNSASMNMANTPNSITVKTAYNGQIIITTINKNISYEELCYEIRNICRFPLDQPFTIKWVDEENDPCTISTKMELDEAIRLYEMNFDSQLVIHVFPNVPQAPGLSCDGEDRSIYRRGARRWRKLYRVNGHIFQAKRFNRRAFCAYCQDRIWGLGRQGFKCIQCKLLVHKKCHKLVQKHCTDQPEPLVKERAEESSDPIPVPLPPLPYEAMSGGAEACETHDHAHIVAPPPPEDPLEPGTQRQYSLNDFELIRVIGRGSYAKVLMVELRRTRRIYAMKVIKKALVTDDEDIDWVQTEKHVFETASNHPFLVGLHSCFQTPSRLFFVIEFVRGGDLMYHMQRQRRLPEEHARFYAAEISLALNFLHEKGIIYRDLKLDNVLLDHEGHIKLTDYGMCKEGIRPGDTTSTFCGTPNYIAPEILRGEDYGFSVDWWALGVLLYEMLAGRSPFDLAGASENPDQNTEDYLFQVILEKTIRIPRSLSVRAASVLKGFLNKNPADRLGCHRESAFMDIVSHPFFKNMDWELLERKQVTPPFKPRLDSDRDLANFPPEFTGEAVQLTPDDDHVIDNIDQSEFEGFEYVNPLLMSLEDCV
In the case of B1, the binding result in experiment [2] is “binds”.

B2: aPKC::GFP (enzyme, UniProt A1Z9X0 1-606)
chain: MQKMPSQILNDGSSVSLNSASMNMANTPNSITVKTAYNGQIIITTINKNISYEELCYEIRNICRFPLDQPFTIKWVDEENDPCTISTKMELDEAIRLYEMNFDSQLVIHVFPNVPQAPGLSCDGEDRSIYRRGARRWRKLYRVNGHIFQAKRFNRRAFCAYCQDRIWGLGRQGFKCIQCKLLVHKKCHKLVQKHCTDQPEPLVKERAEESSDPIPVPLPPLPYEAMSGGAEACETHDHAHIVAPPPPEDPLEPGTQRQYSLNDFELIRVIGRGSYAKVLMVELRRTRRIYAMKVIKKALVTDDEDIDWVQTEKHVFETASNHPFLVGLHSCFQTPSRLFFVIEFVRGGDLMYHMQRQRRLPEEHARFYAAEISLALNFLHEKGIIYRDLKLDNVLLDHEGHIKLTDYGMCKEGIRPGDTTSTFCGTPNYIAPEILRGEDYGFSVDWWALGVLLYEMLAGRSPFDLAGASENPDQNTEDYLFQVILEKTIRIPRSLSVRAASVLKGFLNKNPADRLGCHRESAFMDIVSHPFFKNMDWELLERKQVTPPFKPRLDSDRDLANFPPEFTGEAVQLTPDDDHVIDNIDQSEFEGFEYVNPLLMSLEDCV
For the molecule B2, the binding result in experiment [3] is recorded as “binds”.

B3: Bazooka endogenously tagged with GFP (Baz::GFP) (protein, UniProt O96782 1-1464)
chain: MKVTVCFGDVRILVPCGSGELLVRDLVKEATRRYIKAAGKPDSWVTVTHLQTQSGILDPDDCVRDVADDREQILAHFDDPGPDPGVPQGGGDGASGSSSVGTGSPDIFRDPTNTEAPTCPRDLSTPHIEVTSTTSGPMAGLGVGLMVRRSSDPNLLASLKAEGSNKRWSAAAPHYAGGDSPERLFLDKAGGQLSPQWEEDDDPSHQLKEQLLHQQQPHAANGGSSSGNHQPFARSGRLSMQFLGDGNGYKWMEAAEKLQNQPPAQQTYQQGSHHAGHGQNGAYSSKSLPRESKRKEPLGQAYESIREKDGEMLLIINEYGSPLGLTALPDKEHGGGLLVQHVEPGSRAERGQLRRDDRILEINGIKLIGLTESQVQEQLRRALESSELRVRVLRGDRNRRQQRDSKVADMVEVATVSPTRKPHAAPVGTSLQVANTRKLGRKIQIMLKKGPNGLGFSVTTRDNPAGAHCPIYIKNILPRGAAIEDGRLKPGDRLLEVDGTPMTGKTQTDVVAILRGMPAGATVRIVVSRQQELAEQADQPAEKSAGVAVAPSVAPPAVPAAAAPAPPIPVQKSSSARSLFTHQQQSQLNESQHFIDAGSESAASNDSLPPSSNSWHSREELTLHIPVHDTEKAGLGVSVKGKTCSNLNASGSSASSGSNGLMKHDGDLGIFVKNVIHGGAASRDGRLRMNDQLLSVNGVSLRGQNNAEAMETLRRAMVNTPGKHPGTITLLVGRKILRSASSSDILDHSNSHSHSHSNSSGGSNSNGSGNNNNSSSNASDNSGATVIYLSPEKREQRCNGGGGGGSAGNEMNRWSNPVLDRLTGGICSSNSAQPSSQQSHQQQPHPSQQQQQQRRLPAAPVCSSAALRNESYYMATNDNWSPAQMHLMTAHGNTALLIEDDAEPMSPTLPARPHDGQHCNTSSANPSQNLAVGNQGPPINTVPGTPSTSSNFDATYSSQLSLETNSGVEHFSRDALGRRSISEKHHAALDARETGTYQRNKKLREERERERRIQLTKSAVYGGSIESLTARIASANAQFSGYKHAKTASSIEQRETQQQLAAAEAEARDQLGDLGPSLGMKKSSSLESLQTMVQELQMSDEPRGHQALRAPRGRGREDSLRAAVVSEPDASKPRKTWLLEDGDHEGGFASQRNGPFQSSLNDGKHGCKSSRAKKPSILRGIGHMFRFGKNRKDGVVPVDNYAVNISPPTSVVSTATSPQLQQQQQQQLQQHQQQQQIPTAALAALERNGKPPAYQPPPPLPAPNGVGSNGIHQNDIFNHRYQHYANYEDLHQQHQQHQISRRHQHYHSQRSARSQDVSMHSTSSGSQPGSLAQPQAQSDGVRPMSSYYEYETVQQQRVGSIKHSHSSSATSSSSSPINVPHWKAAAMNGYSPASLNSSARSRGPFVTQVTIREQSSGGIPAHLLQQHQQQQLQQQQPTYQTVQKMSGPSQYGSAAGSQPHASKV
With B3, the binding result in experiment [3], in experiment [4] and in experiment [2] was “binds” in each case.

B4: Discs-large (protein, UniProt P31007 1-970)
chain: MPVKKQEAHRALELLEDYHARLSEPQDRALRIAIERVIRIFKSRLFQALLDIQEFYELTLLDDSKSIQQKTAETLQIATKWEKDGQAVKIADFIKSSNLNRNCAYEFNNDASSNQTNQSALNQNPIANNVSAQAQAEALSRTFKSELEEILNQRMRIESDTENAKEPTVEQQQKQQQAQQRSSRSPQQQNPQQQQGSKSRSGSQTVNGDDSWLYEDIQLERGNSGLGFSIAGGTDNPHIGTDTSIYITKLISGGAAAADGRLSINDIIVSVNDVSVVDVPHASAVDALKKAGNVVKLHVKRKRGTATTPAAGSAAGDARDSAASGPKVIEIDLVKGGKGLGFSIAGGIGNQHIPGDNGIYVTKLMDGGAAQVDGRLSIGDKLIAVRTNGSEKNLENVTHELAVATLKSITDKVTLIIGKTQHLTTSASGGGGGGLSSGQQLSQSQSQLATSQSQSQVHQQQHATPMVNSQSTEPGSRYASTNVLAAVPPGTPRAVSTEDITREPRTITIQKGPQGLGFNIVGGEDGQGIYVSFILAGGPADLGSELKRGDQLLSVNNVNLTHATHEEAAQALKTSGGVVTLLAQYRPEEYNRFEARIQELKQQAALGAGGSGTLLRTTQKRSLYVRALFDYDPNRDDGLPSRGLPFKHGDILHVTNASDDEWWQARRVLGDNEDEQIGIVPSKRRWERKMRARDRSVKFQGHAAANNNLDKQSTLDRKKKNFTFSRKFPFMKSRDEKNEDGSDQEPFMLCYTQDDANAEGASEENVLSYEAVQRLSINYTRPVIILGPLKDRINDDLISEYPDKFGSCVPHTTRPKREYEVDGRDYHFVSSREQMERDIQNHLFIEAGQYNDNLYGTSVASVREVAEKGKHCILDVSGNAIKRLQVAQLYPVAVFIKPKSVDSVMEMNRRMTEEQAKKTYERAIKMEQEFGEYFTGVVQGDTIEEIYSKVKSMIWSQSGPTIWVPSKESL
B4: in experiment [2], the binding entry is “no binding”.
